Experimental data reported in PubChem BioAssay AID1347423 (Functional Genomics Laboratory (NCATS/FGL), 2020).
In all, about 52,000 sequences went through this assay and about 210 (0.4%) were called active.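 Rule for the calls: active = gene whose silencing raises cell survival under the drug, median off-target-corrected z-score across its silencing RNAs 2 or more; inactive = the rest.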 This is one part of the list.

Test: Resistance to Poly (ADP-Ribose) Polymerase inhibitor: Gene Identification via Genome-wide siRNA Screen
Details: mouse BRCA2 R2336H ES cells, olaparib, CellTiter-Glo viability; stronger effect = higher value
Outline: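 Genome-wide siRNA screen (3 siRNAs/gene, 20 nM) in mouse ES cells carrying hypomorphic BRCA2 R2336H; olaparib 500 nM added 48 h post-transfection, CellTiter-Glo viability 72 h later. Normalized to plate-median negative control; MAD z-scores, gene median, seed-adjusted.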

| Sequence | z-score |
| --- | --- |
| GGCUCAAGGUUUUCUCUACTT against Olfr710 | inactive: 0.232 |
| GGUACCUUGCCUGACAAACTT against Ids | inactive: -0.214 |
| GGACCAUAUGGACACAAAGTT against Col10a1 | inactive: 0.609 |
| CGGUCCAGGAAGAAUGUUUTT against Bckdhb | inactive: -1.25 |
| GGAAUACCUCCACCUAUGGTT against Tcerg1 | inactive: 0.715 |
| GGAACAGAAGGGUAAAGGGTT against Gkn1 | inactive: -1.51 |
| GCAACAGAAGAUAACUCAATT against ORF28 | inactive: 0.108 |
| GGAUAAGACUCGAUGGAUGTT against D030051N19Rik | inactive: 0.317 |
| GCUCCUUUGGUUCAACAUCTT against Olfr635 | inactive: -0.403 |
| GGCAGCAGCUACUCCUAUATT against Krt2-6a | inactive: -0.00281 |
| GGCUGGGAAUUUUACAGUATT against Gpr3 | inactive: -0.769 |
| GGCAGCAUAGACUCUGACATT against Rag2 | inactive: -1.34 |
| GGGAAUGAAGAACUUCCUCTT against 4432404J10Rik | inactive: -0.716 |
| GGAUCGAAGUAGAAUGUAUTT against Cpeb2 | inactive: -2.61 |
| GCGACUUAGGGAAAGAUACTT against 1700020C11Rik | inactive: 0.796 |
| GAAUGUUCCUCAUGUCGUCTT against Olfr64 | inactive: -0.461 |
| GCUGCUUACUAUCAGAAAATT against Stx12 | inactive: 0.349 |
| GCCUCAAAACUUCUUGUUCTT against Mxd3 | inactive: 0.892 |
| GGAGAUUCAGAUCAAAGAGTT against Scyl1 | inactive: 0.187 |
| GCCUAUGCCAAUUUGUGCGTT against Paqr6 | inactive: -0.19 |
| GGUGUCGCUUUUUUAUCAATT against Ikbkap | inactive: 0.572 |
| GGCCACUUGUCUCAUUGUGTT against 2900036K24Rik | inactive: -1.09 |
| CGCAUUUCGAAUAAAGACATT against BC024814 | inactive: 0.0213 |
| GCUGGAAAGCUCACAGUUATT against Faah | inactive: 0.647 |
| CCUGUAUGGAGUAAUGGAATT against Eif4ebp3 | inactive: 0.453 |
| GCAUGAUCGUGUUUGUUUATT against Srpk2 | inactive: 1.22 |
| GGGCUCAUUGCUAAAACACTT against Sgcg | inactive: -0.391 |

Quoted at random: 5 entries already listed.

| Sequence | z-score |
| --- | --- |
| GGCAGCAUAGACUCUGACATT against Rag2 | inactive: -1.34 |
| GGAACAGAAGGGUAAAGGGTT against Gkn1 | inactive: -1.51 |
| GCUGCUUACUAUCAGAAAATT against Stx12 | inactive: 0.349 |
| GGUGUCGCUUUUUUAUCAATT against Ikbkap | inactive: 0.572 |
| GGCUGGGAAUUUUACAGUATT against Gpr3 | inactive: -0.769 |

Some values from the entries so far.
GGAUCGAAGUAGAAUGUAUTT against Cpeb2 | z-score: inactive: -2.61
GGCAGCAGCUACUCCUAUATT against Krt2-6a | z-score: inactive: -0.00281
GCAUGAUCGUGUUUGUUUATT against Srpk2 | z-score: inactive: 1.22

More records

| Sequence | z-score |
| --- | --- |
| GGUCGUUAUCACUCUCUAUTT against Pkd1l3 | inactive: 0.682 |
| GGAGAUUGACACCAACACCTT against Clic5 | inactive: 0.894 |
| GGUGAUGCAAGAAGAAAUUTT against Aldh3a2 | inactive: 1.55 |
| GGUUCACAGAGGCUAAGGUTT against Dph2l1 | inactive: 1.23 |
| GGACUUGUCAUUAUUGUCCTT against Olfr397 | inactive: 1.87 |
| GCUCUUGGGUUACUGGGUUTT against Olfr784 | inactive: -1.63 |
| GGACAGUAUGAAUUUGAAUTT against Lcp1 | inactive: -0.393 |
| GCUUGAGUCGUCAAAACUGTT against Mars | inactive: -2.56 |
| GCUUGAUCAUGCAAUCUAUTT against C330023M02Rik | inactive: -0.739 |
| CCCAAUAGGAGCUCAUCAUTT against Nr4a3 | inactive: 2.68 |
| GGAAGCAGUAAGAAAUCAGTT against Clpx | inactive: 1.52 |
| GGAAACGGUGCGACUUCAATT against 1200015N20Rik | inactive: -2.73 |
| GGACAAUGAUUACGACCACTT against Cacng4 | inactive: 0.29 |
| CGACCGUUGUUAUGGGCAATT against Pla2g5 | inactive: -0.335 |
| GUUACUUGAAAAUUGGACATT against V1rd4 | inactive: -0.945 |
| GGUGCUAAGCAUGAAGCCUTT against Stk16 | inactive: 0.449 |
| GCAUAGAGGACUACAACGATT against Optc | inactive: 0.177 |
| GCUGUUUGAGGUCAUUCAUTT against AK122209 | inactive: -0.363 |
| GGAGUGAAGGGUCAUCCAGTT against Col9a2 | inactive: -0.727 |
| GGGACAAGACUGUAUCUUUTT against Fgf4 | inactive: 1.67 |
| GCAUUCAGAAAGUGUAUAATT against Tm4sf8 | inactive: -1.36 |
| CGAAAGGAAACAGUCCAGATT against 2900016D05Rik | inactive: -0.217 |
| GCCCAAUAACCAAAUGCCATT against Tox | inactive: 0.845 |
| CCUCAUUUCAUUGUCUAGUTT against Ankrd25 | inactive: -0.345 |
| GGCUGUCGAGUAUAAAUCUTT against Stfa3 | inactive: -0.0514 |
| GGUUACAUCAUCUUAACACTT against AI449441 | inactive: 0.883 |
| GGACGAAUGUCACAAUUUUTT against Sema4f | inactive: 2.13 |

| Sequence | z-score |
| --- | --- |
| GCCAUCAUCCAGCUAUGACTT against Olfr360 | inactive: -1.32 |
| GGGUUAAUCCCUAUCUCUUTT against Tcfe3 | inactive: 1.37 |
| GGAAGCCUUAUAUCGGGCGTT against A430041B07 | inactive: 0.138 |
| GGAUACGUUACUCCAGUCATT against Ctsk | inactive: -1.63 |
| GGGACAGAAAGGAAAGACUTT against Ndufb4 | inactive: -2.03 |
| GGAACAGUCUGAAAUACACTT against Usp18 | active: 0.039 |
| GGAAAUGAAGCAUCUGUAUTT against Txnip | inactive: -1.32 |
| GGUGCUGCUUUAUUCCUGGTT against Dhcr7 | inactive: 0.469 |
| GGAAGACCAAGAGGAAAACTT against 4930553M18Rik | inactive: 1.03 |
| GCUCCAUACUCCGGAUCAGTT against Ftl2 | inactive: -0.974 |
| GGAUAUUGAUGCAUACUUUTT against AF233884 | inactive: -2.25 |
| GAUCAAAGAUCAUGUGGCCTT against Fau | inactive: -2.89 |
| GCUCCGUCAGACAAAGAAGTT against Apex1 | inactive: -1.04 |
| GGUAGUUCAUCUCAGGCCUTT against Ly64 | inactive: 0.0122 |
| GGCUUCUCUGCUCUAGGCUTT against 1700023M09Rik | inactive: 0.768 |
| GGGCCAUUUUAGGUCCUUUTT against Rbm7 | inactive: 0.375 |
| GGAAUGAGAAGUUCUAUGATT against Chrna7 | inactive: 1.49 |
| GCACCAGUCGGUAUUCACATT against C1qg | inactive: -0.301 |
| GGAAACAUGGCCAUGUUUUTT against Cyp7a1 | inactive: -0.537 |
| GGAAAAGAUCUCGUGGUUGTT against Slc25a17 | inactive: -0.0183 |
| GGAACCCUUGGUUUUUUUUTT against Oas1a | inactive: 1.68 |
| GCAACCAUUCAAACAUUUGTT against D630047F21Rik | inactive: 0.437 |
| GGAUCAACAAGGAACUGGCTT against Ap2a1 | inactive: 3.82 |
| GGAUGAAAAGAUUGAACUCTT against Gart | inactive: -0.451 |
| CCAGCAAAAUCACUUAAUATT against Emb | inactive: -0.588 |
| GGAAGAAGGCAUUGUGAAGTT against Rps6ka2 | inactive: 0.785 |
| CCAUGCGGCUUGUAAUAUGTT against AU022252 | inactive: -1.63 |

| Sequence | z-score |
| --- | --- |
| CCUCCACCGAAAUAAUUAATT against Dnajb3 | inactive: -0.0241 |
| CCUAAUACCUUCAGUGUUCTT against 2810422B04Rik | inactive: 2.12 |
| GCCGUCAUCACUGAAUUCATT against Olfr242 | inactive: -0.964 |
| GGGAGAUGAUAAUUAAGUUTT against C130079G13Rik | inactive: -0.563 |
| GGGCUGUUUUUACAAAACATT against AW121567 | inactive: 1.45 |
| GGUGCUUCUGAGCAAGAAUTT against Adra2b | inactive: -2.26 |
| GCUUCUGUUCGUUACGUCCTT against Ndufc2 | inactive: 0.012 |
| GGACCUGGUGGAGAACAAGTT against Kcnj12 | inactive: 0.289 |
| GCACAAUUAGACUUCUUCCTT against Vat1 | inactive: 1.67 |
| GGCAAAAUGAAUGAGGAAATT against Es1 | inactive: -0.733 |
| GGUCAUCGAGACUCAGGAUTT against Ihh | inactive: -0.547 |
| CCACUUGUACGCACUCAAGTT against Ang4 | inactive: 1.32 |
| GGGAUGAGUUCUCCUACCATT against Srm | inactive: 0.914 |
| CCCAGAAGACCCGAACUUUTT against E130006D01Rik | inactive: 0.351 |
| GCAGUGCAGUGGAUCAAAUTT against Arts1 | inactive: 0.903 |
| GGUGCUGAUGGAGAACUUCTT against Ruvbl1 | inactive: -2.63 |
| GCCUCCUUUAUGUAGCUUATT against Cdca3 | inactive: -0.536 |
| GGAAGACUUUGCUUAUUGGTT against Ocsp | inactive: 0.0152 |
| GGAGAGUUGCCUCAAACAUTT against Ubadc1 | inactive: 1.42 |
| GCCAACUAUCUUUUCUUAGTT against Ppp1cb | inactive: -0.557 |
| GGUGUCUUUCUUCACUCUUTT against Olfr862 | inactive: 0.0823 |
| GGUUCAUGUGAACUUGCUGTT against Sesn2 | inactive: 0.535 |
| CCAUGACUAUUCUUACUUCTT against Olfr937 | inactive: -0.143 |
| CCUGAAUCUAGCCAUUCAATT against Olfr1080 | inactive: -0.135 |
